Data as given in PMC5430869, “Structure-function analysis of the DNA-binding domain of a transmembrane transcriptional activator”.
No constants are given. Whether binding was seen depends on the method and setting.

Columns and labels:
[1] = target: CadC DNA-binding domain (amino acids 1-107) (E. coli) (UniProt P23890); assay: NMR 15N relaxation (tumbling correlation time); CadC 1-107 alone; 20 mM BisTris, 150 mM NaCl, pH 6.5, 10% D2O; 298 K, 600 MHz; both purified
[2] = target: CadC DNA-binding domain (amino acids 1-107) (E. coli) (UniProt P23890); assay: crystal structure; CadC 1-107 alone; one molecule in the asymmetric unit; 10 mM MES pH 6.5, 10 mM zinc sulphate, 27.5% PEG550 MME; both purified
[3] = target: CadC DNA-binding domain (amino acids 1-107) (E. coli) (UniProt P23890); assay: SAXS; CadC 1-107 alone at 200 uM; 20 mM BisTris, 150 mM NaCl, pH 6.5; molecular weight from the Porod volume; both purified

binding [1]: no binding
binding [2]: no binding
binding [3]: no binding (tested: 200 μM)
B1: CadC DNA-binding domain (amino acids 1-107) (domain or fragment, UniProt P23890 1-107)
chain: MQQPVVRVGEWLVTPSINQISRNGRQLTLEPRLIDLLVFFAQHSGEVLSRDELIDNVWKRSIVTNHVVTQSISELRKSLKDNDEDSPVYIATVPKRGYKLMVPVIWY
